In PubChem BioAssay AID1347131 (National Center for Advancing Translational Sciences (NCATS), 2019):
Screen size: about 410,000 compounds; about 2,000 (0.49%) were called active. The inconclusive results got no clear call from the source; some entries with a clear call stand among them for comparison. The call rests on the fitted dose curve; tested in HEK293 reporter line. Where the call is inconclusive, the potency comes from a doubtful curve fit.

assay: qHTS Assay for Foot and Mouth Disease Virus Antivirals: Primary Screen against the MLPCN compound library; details: FMDV antiviral cell-based qHTS; activity, negative = inhibition: at 57.9 µM (top of the series); further: nearly all actives have a fitted effect of over 55% in size
Potency means the concentration at half of the fitted maximal effect.

Compound | Potency | activity, negative = inhibition
Cc1cccc(C2CC(c3ccc(Br)cc3)Nc3nc(N)nn32)c1 (stereo not drawn) | inconclusive: 8.91 µM [inhibitor, partial curve, poor fit] | 
Cc1cccc(CCNC(=O)C2CCCN(c3ncnc4c3nc3n4CCCCC3)C2)c1 (stereo not drawn) | inconclusive: 15.8 µM [inhibitor, partial curve] | 
CN(c1ccccc1)S(=O)(=O)c1ccc(Cl)c(C(=O)Nc2ccc(N3CCOCC3)cc2)c1 | inconclusive: 11.2 µM [inhibitor, partial curve] | 
CCc1nc(CN2CCN(c3cc(C(F)(F)F)ccn3)CC2)c(C)[nH]1 |  | inconclusive: -35.9% [inhibitor]
O=c1[nH]c(CSc2ccccn2)nc2c1oc1ccccc12 | inconclusive: 17.8 µM [inhibitor, partial curve] | 
COc1cccc(CN(C)c2nc(-c3cccs3)nc3ccccc23)c1 | inconclusive: 5.01 µM [inhibitor, partial curve, poor fit] | 
N=c1n(CCN2CCCCC2)c2ccccc2n1CC(O)COc1ccccc1 (stereo not drawn) | inconclusive: 39.8 µM [inhibitor, partial curve, poor fit] | 
COc1ccc(N(CC(=O)Nc2ccc(C(C)C)cc2)S(=O)(=O)c2c(C)noc2C)cc1 | inconclusive: 22.4 µM [inhibitor, single point] | 
COc1ccc2c(CC(=O)Nc3ccccc3N3CCOCC3)coc2c1 | inactive | 
CC1CCCCC1Nc1nc2ccc(Cl)cc2n2cnnc12 (stereo not drawn) | inconclusive: 25.1 µM [inhibitor, single point] | 
COc1ccc(N2CCN(Cc3nc4c(c(=O)n(C)c(=O)n4C)n3Cc3ccccc3C)CC2)cc1 | inconclusive: 2 µM [inhibitor, full curve] | 
Cc1ccc(S(=O)(=O)N2CCN(C(=O)CN3CCOCC3)C2)cc1 | inconclusive: 4.47 µM [inhibitor, full curve] | 
CC(=O)OCCCNc1cc(SCc2ccco2)c2nonc2c1[N+](=O)[O-] | inconclusive: 35.5 µM [inhibitor, partial curve, poor fit] | 
O=C(CCC1N=C2c3ccccc3N=C(SCc3cccc(F)c3)N2C1=O)NCCc1ccccc1 (stereo not drawn) | inconclusive: 2 µM [inhibitor, full curve] | 
Cc1ccc2nc(-c3ccc(NC(=O)CCN4C(=O)c5ccccc5C4=O)cc3)sc2c1 | active: 7.08 µM | 
Cc1cc(NC(=O)CCS(=O)(=O)c2nc(-c3ccccc3)cc(C(F)(F)F)n2)no1 | inconclusive: 25.1 µM [inhibitor, partial curve, poor fit] | 
Cc1nn(Cc2ccccc2)c2sc(C(=O)N3CCN(Cc4ccc5c(c4)OCO5)CC3)cc12 | inconclusive: 31.6 µM [inhibitor, partial curve, poor fit] | 
COc1ccccc1-c1nnc(Sc2nc([N+](=O)[O-])nn2C)o1 | inconclusive: 28.2 µM [inhibitor, partial curve, poor fit] | 
N#Cc1ccc(NC(=O)CCc2ccc(S(=O)(=O)N3CCOCC3)cc2)cc1 | inconclusive: 28.2 µM [inhibitor, partial curve, poor fit] | 

Taken from the results shown for reference:
Compound | Potency | activity, negative = inhibition
CC1CCCCC1Nc1nc2ccc(Cl)cc2n2cnnc12 (stereo not drawn) | inconclusive: 25.1 µM [inhibitor, single point] | 
COc1ccc(N2CCN(Cc3nc4c(c(=O)n(C)c(=O)n4C)n3Cc3ccccc3C)CC2)cc1 | inconclusive: 2 µM [inhibitor, full curve] | 
Cc1ccc(S(=O)(=O)N2CCN(C(=O)CN3CCOCC3)C2)cc1 | inconclusive: 4.47 µM [inhibitor, full curve] | 

(further entries)

Compound | Potency | activity, negative = inhibition
CCOc1ccccc1C(=O)N1CCc2cc(OC)c(OC)cc2C1COc1ccc(OC)cc1 (stereo not drawn) | inconclusive: 2 µM [inhibitor, partial curve, poor fit] | 
Cc1ccc(NC(=O)/C(C#N)=C(\N)C(Cl)(Cl)Cl)nc1 | inconclusive: 17.8 µM [inhibitor, single point] | 
Fc1ccc(-c2nc3n(n2)Cc2ccccc2-3)cc1 | inconclusive: 17.8 µM [inhibitor, single point] | 
Nc1ccc([N+](=O)[O-])cc1 | inconclusive: 2.51 µM [inhibitor, full curve] | 
COc1ccc(NC(=O)c2ccc(S(=O)(=O)N(C)c3ccccc3)cc2)cc1S(=O)(=O)N1CCOCC1 | inconclusive: 15.8 µM [inhibitor, partial curve, poor fit] | 
CC(=O)Oc1ccc2c(=O)c(-c3nc4ccccc4s3)coc2c1 | inconclusive: 14.1 µM [inhibitor, single point] | 
COc1ccccc1OCC(=O)Nc1cc(S(=O)(=O)N2CCCCC2)ccc1N1CCCCC1 | inactive | 
Cc1nn(Cc2ccc(F)cc2)c(C)c1NC(=O)c1noc2c1CCc1ccccc1-2 | inconclusive: 31.6 µM [inhibitor, partial curve, poor fit] | 
Cn1c(=O)c2c(nc(NCc3ccco3)n2CCc2ccccc2)n(C)c1=O | inconclusive: 20 µM [inhibitor, partial curve, poor fit] | 
CCN(CC)C(=O)c1ccc2c3c(cccc13)C(=O)N(CCc1ccc(OC)c(OC)c1)C2=O | inconclusive: 31.6 µM [inhibitor, partial curve, poor fit] | 
Cc1cccc(C(=O)n2c(=S)nc3cc(C)ccn32)c1 | active: 11.2 µM | 
O=C(Nc1nc2ccc(F)cc2s1)c1ccccn1 | inconclusive: 11.2 µM [inhibitor, partial curve, poor fit] | 
CCOC(=O)c1ccc(NC(=O)C2CCCN(S(=O)(=O)c3ccc(F)cc3)C2)cc1 (stereo not drawn) | inconclusive: 22.4 µM [inhibitor, partial curve, poor fit] | 
O=C(NCCc1ccccc1)c1ccc2c(c1)nc1n2CCOC1 | inconclusive: 17.8 µM [inhibitor, single point] | 
CN(C)C(=O)Oc1ccc(OCc2nc3ccccc3[nH]2)cc1 | inconclusive: 12.6 µM [inhibitor, single point] | 
Cc1sc2ncnc(NCCc3ccc(S(N)(=O)=O)cc3)c2c1C | inconclusive: 11.2 µM [inhibitor, partial curve, poor fit] | 
CCCCN(CCCC)S(=O)(=O)c1ccc(NC(=O)Cc2cccs2)cc1 | inconclusive: 22.4 µM [inhibitor, single point] | 
CC(=O)c1ccc2c(c1)C1C(Cl)C(Sc3ccccc3[N+](=O)[O-])CC1C(C(=O)O)N2 (stereo not drawn) | inconclusive: 1.41 µM [inhibitor, full curve] | 
COc1ccc(-c2nc(CSCC(=O)N3CCN(c4ccccc4F)CC3)c(C)o2)cc1 | inconclusive: 31.6 µM [inhibitor, partial curve, poor fit] | 
